In patent US9914750B2, “Synthetic peptides and peptide mimetics” (University of Louisville Research Foundation, priority 2007, dated 2018):
Entries after “also recorded” stand apart in the source; their conditions may differ. Part of at least one peptide drawing is inferred or uncertain, most often the ends. No end group written: not given here.

System: P. aeruginosa
Experiment: Antibacterial activity in vivo, Romaine lettuce infection model
Design: species or system Pseudomonas aeruginosa
Details: 200 μg/ml peptide injected with bacteria, scored after 2-3 days
Description: FIG. 4: Antibacterial activity in vivo. Romaine lettuce leaves were injected with P. aeruginosa (10^8 cells/nil) in the presence or absence of 200 μg/ml of antibacterial peptides. After 2-3 days incubation the injection sites were scored for infection on a scale of 0-100% relative to the no-bacteria (0% infection) and bacteria-only controls (PAO1) (100%). Data are from six independent experiments and are shown as mean±SEM, N=4−12. *) P<0.04, **) P<0.003.
Romaine lettuce heads were purchased from local grocery stores. Outer leaves were removed and undamaged leaves were selected. The leaves were rinsed in 0.1% bleach and incubated in plastic containers on filter paper moistened with 10 mM MgSO4. Overnight cultures of P. aeruginosa were diluted to 10^8 CFU/ml in 10 mM MgSO4 and supplemented with 200 μg/ml of each peptide. Ten μl (10^6 CFU, 2 μg peptide) were injected into the midrib of each leaf using a micro pipetter. Blank controls were incubated with buffer only, and bacterial controls were incubated without peptide. The plastic trays were covered and incubated at 35° C. Leaves were inspected daily for browning around the injection site or along the midrib. Generally rotting or moldy leaves were discarded. Infection was scored on a scale from 0% to 100% relative to blank controls and bacterial controls, respectively.

In the case of “GQIINLKASLDLL-NH2 [GL13-NH2, GQIINLKASLDLL-(CONH2)]”, the “infection of lettuce leaves (words)” value (listed as GL13) is reported as “significantly reduced the infection; also recorded: significantly inhibit P. aeruginosa infection” and the “infection of lettuce leaves (words)” value (listed as GL-13) is reported as “effectively inhibited the spread”.
